According to article PMC11061277:
Results are given in words; binding and its absence hold for the method and conditions named. In cells and extracts the contact can be indirect. Some entries that bind do so weakly or less than the wild type.

Chains of the proteins cited; added tags and fusions are not shown.
UniProt P07355: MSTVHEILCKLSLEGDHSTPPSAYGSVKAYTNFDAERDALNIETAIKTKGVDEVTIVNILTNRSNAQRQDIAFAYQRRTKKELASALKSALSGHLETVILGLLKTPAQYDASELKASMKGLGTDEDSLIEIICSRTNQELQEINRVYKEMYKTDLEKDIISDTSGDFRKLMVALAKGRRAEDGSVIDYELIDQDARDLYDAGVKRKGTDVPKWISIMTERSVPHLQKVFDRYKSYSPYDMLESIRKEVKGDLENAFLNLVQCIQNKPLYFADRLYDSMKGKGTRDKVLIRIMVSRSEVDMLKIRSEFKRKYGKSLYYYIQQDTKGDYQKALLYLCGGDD

T1: tripartite motif containing 65 (TRIM65) (human (endogenous in A549 and H1299)) (UniProt Q6PJ69)
T1 sequence: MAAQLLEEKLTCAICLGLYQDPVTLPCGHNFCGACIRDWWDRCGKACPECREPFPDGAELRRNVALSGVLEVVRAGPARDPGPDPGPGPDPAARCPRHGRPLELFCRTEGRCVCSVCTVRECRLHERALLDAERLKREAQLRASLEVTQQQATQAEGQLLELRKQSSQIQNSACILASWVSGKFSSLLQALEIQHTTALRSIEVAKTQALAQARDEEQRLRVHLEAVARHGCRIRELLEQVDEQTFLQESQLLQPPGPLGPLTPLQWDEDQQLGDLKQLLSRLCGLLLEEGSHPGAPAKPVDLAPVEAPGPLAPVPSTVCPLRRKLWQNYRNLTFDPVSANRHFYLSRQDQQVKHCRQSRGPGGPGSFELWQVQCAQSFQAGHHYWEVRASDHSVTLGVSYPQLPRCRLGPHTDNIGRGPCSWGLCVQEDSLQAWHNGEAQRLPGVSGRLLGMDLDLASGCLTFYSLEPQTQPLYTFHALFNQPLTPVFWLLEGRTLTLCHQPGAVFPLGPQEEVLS


Legend:
[1] = biological target: T1, tripartite motif containing 65 (TRIM65) (human (endogenous in A549 and H1299)); assay: co-IP; endogenous IP from whole-cell lysates (IP lysis buffer) of A549 and H1299 cells with antibodies against TRIM65 or ANXA2 or normal IgG, Protein A/G PLUS-Agarose, western blot; also in cells stably overexpressing lncRNA HAR1A against vector cells (more ANXA2 with anti-TRIM65)
[2] = biological target: annexin 2 (ANXA2) (human (endogenous in A549 and H1299)) (UniProt P07355); assay: as above

Row | binding [1] | binding [2] | Molecule
1 | binds | – | annexin 2 (ANXA2) (from UniProt P07355 1-339)
2 | – | binds | tripartite motif containing 65 (TRIM65) (protein, UniProt Q6PJ69 1-517) MAAQLLEEKLTCAICLGLYQDPVTLPCGHNFCGACIRDWWDRCGKACPECREPFPDGAELRRNVALSGVLEVVRAGPARDPGPDPGPGPDPAARCPRHGRPLELFCRTEGRCVCSVCTVRECRLHERALLDAERLKREAQLRASLEVTQQQATQAEGQLLELRKQSSQIQNSACILASWVSGKFSSLLQALEIQHTTALRSIEVAKTQALAQARDEEQRLRVHLEAVARHGCRIRELLEQVDEQTFLQESQLLQPPGPLGPLTPLQWDEDQQLGDLKQLLSRLCGLLLEEGSHPGAPAKPVDLAPVEAPGPLAPVPSTVCPLRRKLWQNYRNLTFDPVSANRHFYLSRQDQQVKHCRQSRGPGGPGSFELWQVQCAQSFQAGHHYWEVRASDHSVTLGVSYPQLPRCRLGPHTDNIGRGPCSWGLCVQEDSLQAWHNGEAQRLPGVSGRLLGMDLDLASGCLTFYSLEPQTQPLYTFHALFNQPLTPVFWLLEGRTLTLCHQPGAVFPLGPQEEVLS
